Measurements reported in PubChem BioAssay AID720505 (Drosophila RNAi Screening Center, 2013)
In all, the deposit lists about 20,000 reagents; below is an unselected part of those that have a named target and a result. Of all reagents, about 2,100 (10%) are marked active. 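Raw plate signals without normalisation; calls rest on control-based scores that were not deposited; replicate 2 separates called from uncalled poorly.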 Unmarked entries are inactive. Not given: the amount of reagent, the time to read-out.

- Aim: 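Knock-downs that reduce calcium influx once internal stores are emptied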 (primary screen)
- System: Drosophila S2R+ cells
- Reagents: long dsRNA against Drosophila genes
- Challenge: thapsigargin (2 µM) in calcium-free buffer to empty internal stores, then 2 mM calcium added back
- Detection: 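Fluo-4 signal in 384-well plates read on a FLIPR after thapsigargin (2 µM, calcium-free) store depletion and 2 mM calcium add-back; unnormalised mean endpoint per well; screen run twice, selected wells retested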
- Direction: calcium signal and retest calcium signal: higher = more calcium entry after store depletion
- Active means: 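Knock-downs counted as hits when calcium entry dropped relative to STIM1 positive and Rho1 negative controls present on each plate; roughly 1500 genes called, with reductions of differing size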
- Calls: active = called as lowering calcium entry; inactive = not called

achi [SID104187068]
- calcium signal, replicate 1: 135
- calcium signal, replicate 2: 160

scro [SID104196894]
- calcium signal, replicate 1: 120
- calcium signal, replicate 2: 155

Kdsr [SID104194037]
- calcium signal, replicate 1: 151
- calcium signal, replicate 2: 233

RhoGAP93B [SID104195280]
- calcium signal, replicate 1: 232
- calcium signal, replicate 2: 158

Dab [SID104190932]
- calcium signal, replicate 1: 120
- calcium signal, replicate 2: 153
- retest calcium signal, replicate 1: 5392
- retest calcium signal, replicate 2: 118

ZnT63C [SID104188311]
- calcium signal, replicate 1: 108
- calcium signal, replicate 2: 103

ZnT63C [SID104201590]
- calcium signal, replicate 1: 100
- calcium signal, replicate 2: 163

Afg3l2 [SID104190449]
- calcium signal, replicate 1: 92.3
- calcium signal, replicate 2: 119

Klp10A [SID104199393]
- calcium signal, replicate 1: 105
- calcium signal, replicate 2: 83.5

CG30480 [SID104186528]
- calcium signal, replicate 1: 95.2
- calcium signal, replicate 2: 198

cort [SID104181940]
- calcium signal, replicate 1: 90.6
- calcium signal, replicate 2: 81.3

cert [SID104189466]
- calcium signal, replicate 1: 63.1 (active)
- calcium signal, replicate 2: 82

side-III [SID104191947]
- calcium signal, replicate 1: 158
- calcium signal, replicate 2: 190

side-III [SID104192055]
- calcium signal, replicate 1: 150
- calcium signal, replicate 2: 238

side-III [SID104192056]
- calcium signal, replicate 1: 143
- calcium signal, replicate 2: 195

Cht4 [SID104184395]
- calcium signal, replicate 1: 53.6
- calcium signal, replicate 2: 205

CG12384 [SID104185937]
- calcium signal, replicate 1: 124
- calcium signal, replicate 2: 120
- retest calcium signal, replicate 1: 106
- retest calcium signal, replicate 2: 116

APC4 [SID104198152]
- calcium signal, replicate 1: 186
- calcium signal, replicate 2: 99.1

mRpL47 [SID104196619]
- calcium signal, replicate 1: 96.7
- calcium signal, replicate 2: 92.7

Active calls (from the list above):
cert [SID104189466]
- calcium signal, replicate 1: 63.1 (active)
- calcium signal, replicate 2: 82
